From patent US20050272647A1, “Arthrodial cartilage extracellular matrix degradation inhibitor” (priority 2002, published 2005)

Test system: rabbit knee articular cartilage primary culture cells
Test: PG destruction inhibitory activity in rabbit cartilage primary culture cell (stimulation with retinoic acid)
Conditions: Oryctolagus cuniculus, 48 h, read-out: PG degradation inhibition (%)

Structure (SMILES): O=C(CCCCCCC(=O)Nc1ccccc1)NO [SAHA]
- inhibition at 0.3 µM: 13%
- inhibition at 3 µM: 71%
